# According to PubChem BioAssay AID1508600 (Functional Genomics Laboratory (NCATS/FGL), 2020):
# About 3,700 (7%) of roughly 53,000 sequences were called active.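 The calls were made as follows: active = gene knockdowns whose robust z-score for IL-1 alpha signal is at least 2 or at most -2, so actives lie on both sides; inactive = the rest.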 This is one part of the list.
# Assay: Components of the Cytosolic LPS Sensing Pathway: Gene Identification via Genome-wide siRNA Screen;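 also: robust z of the log signal after scaling to non-targeting control siRNA wells of the plate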
# Settings: RAW264.7 macrophages, IL-1a HTRF, actives lie on both sides, screened at 100 nM (by protocol), cells primed 5 h with Pam3CSK4 first
# Procedure, shortened: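 Three distinct siRNAs per gene were tested singly at 100 nM in RAW264.7 macrophages. Following Pam3CSK4 priming and 24 hour LipidA transfection, IL-1a secretion was read by HTRF.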
row,Sequence,z-score
1,GGAAAUCCGGCUCAUUGAUTT against Aass,inactive: -0.0621
2,GCCAAAUGACCUUCAGUGUTT against Klk1b24,inactive: -0.187
3,CACCUCUGGUGAAAGCUAATT against Bola1,inactive: 0.308
4,GGAUCCUGAAACCAUGAGCTT against Lrrc14,inactive: 0.482
5,CGGAAGUAAAAAGAACUACTT against Olfr1321,active: 3.01
6,GCAGCAUUGAUAAAUGGUCTT against Rab3c,inactive: 0.571
7,GGCCCAUCACUUACUAAAGTT against Exoc3l,inactive: 0.224
8,CCUGGACAAGCUAUACCUUTT against Cdc45,inactive: 0.952
9,GCAGAGGAACAAGGCAUGUTT against Olfr345,inactive: -1.42
10,GCCUGUUCUAGUGGUUCUUTT against Krtap4-13,inactive: -0.427
11,GGAGACAUGUUCCACAGGCTT against Ngfr,inactive: -1.31
12,GGGCAACACCAUGGAGAUCTT against Crybb1,inactive: 1.78
13,GGUAUGAUGAACAGUCCAGTT against Ep300,active: -2.35
14,CCUUCUUUAUAGGUAUGACTT against Klhl36,inactive: 0.91
15,CCUAAGCAGCAUUUCAAUATT against Gyg,inactive: 1.02
16,GGACGGCCUGUUUGUUAUATT against Olfr1346,inactive: 1.21
17,CCUGUGAAUUCAUCGUUCATT against Vps26c,active: 2.34
18,CCAACAGUACCUCAUUGCUTT against Ciao2a,inactive: -0.834
19,CCUUCAGAUUUCAGCUGAATT against Prkcb,inactive: 0.366
20,GGCAUGGAUCCUGAAAAACTT against Clec16a,inactive: -0.208
21,GGUGGUAUUGUUGGCUUUATT against Olfr1297,inactive: 0.293
22,CGGGAUCCUGUUUCAAGCUTT against Abr,inactive: 0.19
23,GCAUCCUCAUCAUUCCAAATT against Cd226,inactive: 0.579
24,GGUGGCUAUUGUCUUCAAGTT against Ptpa,inactive: -0.104
25,CGAAACCAAUCUAAAGAAGTT against Aco2,inactive: 0.184
26,CCUUCGAGACCUGUUGUCUTT against Kif26b,inactive: -1.2
27,GGCUCUGAAUCAGAAGAGUTT against Adamtsl2,inactive: -0.57
28,GGAAAAAGCACCAUUGUGATT against Gnao1,inactive: -0.819
29,GGCUUUAUGCAUCAGUUAATT against Ralgapb,inactive: -0.986
30,GGAAUGUGUGGGUUUUCCUTT against Tmem14c,inactive: 1.23

# From entry 1 to 7, copied from above:
row,Sequence,z-score
1,GGAAAUCCGGCUCAUUGAUTT against Aass,inactive: -0.0621
2,GCCAAAUGACCUUCAGUGUTT against Klk1b24,inactive: -0.187
3,CACCUCUGGUGAAAGCUAATT against Bola1,inactive: 0.308
4,GGAUCCUGAAACCAUGAGCTT against Lrrc14,inactive: 0.482
5,CGGAAGUAAAAAGAACUACTT against Olfr1321,active: 3.01
6,GCAGCAUUGAUAAAUGGUCTT against Rab3c,inactive: 0.571
7,GGCCCAUCACUUACUAAAGTT against Exoc3l,inactive: 0.224
